Where a name gives a salt, the structure may show the parent alone. The list shows a part of the results. Many values rest on one well or one pass, so single values are uncertain.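 The three strains are clinical Candida auris isolates from the CDC resistance isolate bank, from clades III, IV and I, grown in RPMI-1640 at 35°C. Growth is background-corrected OD600 relative to vehicle-only wells on the same plate; a hit meant over 50% inhibition in at least two strains plus a plate-corrected B-score above 0.1.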
Legend:
Experiment in all cases: growth relative to vehicle control (OD600 ratio) (fraction); higher = less inhibition
Settings in all cases: 24 h
C. auris AR-384 = tested on: C. auris AR-384
C. auris AR-386 = tested on: C. auris AR-386
C. auris AR-387 = tested on: C. auris AR-387

Row | SMILES | growth (C. auris AR-384; 1 µM) | growth (C. auris AR-384; 10 µM) | growth (C. auris AR-386; 1 µM) | growth (C. auris AR-386; 10 µM) | growth (C. auris AR-387; 1 µM) | growth (C. auris AR-387; 10 µM)
1 | CCC(=O)O[C@]1(C(=O)CCl)[C@@H](C)C[C@H]2[C@@H]3CCC4=CC(=O)C=C[C@]4(C)[C@@]3(F)[C@@H](O)C[C@@]21C [Clobetasol propionate] | 1.04 | 0.93 | 0.87 | 0.95 | 0.85 | 0.83
2 | c1ccc(-c2ccc(C(c3ccccc3)n3ccnc3)cc2)cc1 (configuration not stated) [Bifonazole] | 0.61 | 0.6 | 0.85 | 0.48 | 0.4 | 0.22
3 | C[C@H]1O[C@@H](n2cc(F)c(=O)[nH]c2=O)[C@H](O)[C@@H]1O [Doxifluridine] | 0.86 | 0.91 | 1.06 | 1.17 | 0.97 | 1.01
4 | Nc1ccc(S(=O)(=O)Nc2ccnn2-c2ccccc2)cc1 [Sulfaphenazole] | 0.92 | 0.84 | 0.83 | 0.88 | 0.63 | 0.74
5 | C[N+](C)(CCOc1ccccc1)Cc1ccccc1.O=C([O-])c1cc2ccccc2cc1O [Bephenium Hydroxynaphthoate] | 0.89 | 0.81 | 0.88 | 1 | 1.01 | 1.07
6 | CC1(C)[C@@H](O[C@H]2O[C@H](C(=O)O)[C@@H](O)[C@H](O)[C@H]2O[C@@H]2O[C@H](C(=O)O)[C@@H](O)[C@H](O)[C@H]2O)CC[C@]2(C)[C@H]3C(=O)C=C4[C@@H]5C[C@@](C)(C(=O)O)CC[C@]5(C)CC[C@@]4(C)[C@]3(C)CC[C@@H]12 [Ammonium Glycyrrhizinate] | 0.94 | 0.86 | 0.99 | 0.83 | 1.02 | 0.93
7 | CN(C)CCOC(=O)COc1ccc(Cl)cc1 [Meclofenoxate (Centrophenoxine) HCl] | 0.79 | 0.73 | 0.62 | 0.59 | 0.79 | 0.86
8 | Cc1ccccc1N1C(=O)c2cc(S(N)(=O)=O)c(Cl)cc2NC1C (configuration not stated) [Metolazone] | 1.19 | 1.11 | 1.2 | 0.73 | 1.02 | 0.68
9 | C/C=C(/C)C(=O)O[C@H]1[C@H](OC(C)=O)[C@@]2(CO)C(CC1(C)C)C1=CCC3[C@@]4(C)CCC(O[C@@H]5O[C@H](C(=O)O)[C@@H](O[C@@H]6O[C@H](CO)[C@@H](O)[C@H](O)[C@H]6O)[C@H](O)[C@H]5O[C@@H]5O[C@H](CO)[C@@H](O)[C@H](O)[C@H]5O)[C@](C)(CO)C4CC[C@@]3(C)[C@]1(C)C[C@H]2O.C/C=C(\C)C(=O)O[C@H]1[C@H](OC(C)=O)[C@@]2(CO)C(CC1(C)C)C1=CCC3[C@@]4(C)CCC(O[C@@H]5O[C@H](C(=O)O)[C@@H](O[C@@H]6O[C@H](CO)[C@@H](O)[C@H](O)[C@H]6O)[C@H](O)[C@H]5O[C@@H]5O[C@H](CO)[C@@H](O)[C@H](O)[C@H]5O)[C@](C)(CO)C4CC[C@@]3(C)[C@]1(C)C[C@H]2O (some centres not stated) [Escin] | 0.87 | 0.98 | 0.94 | 0.88 | 0.96 | 0.63
10 | CC(=O)O[C@H]1C[C@@]2(C)[C@@H](C[C@@H](O)[C@H]3[C@@]4(C)CC[C@@H](O)[C@@H](C)[C@@H]4CC[C@@]32C)/C1=C(\CCC=C(C)C)C(=O)O [Fusidate Sodium] | 0.86 | 0.6 | 0.83 | 0.55 | 0.89 | 0.82
11 | O=C(O)Cc1ccccc1Nc1c(Cl)cccc1Cl [Diclofenac Sodium] | 0.79 | 0.69 | 0.84 | 0.78 | 0.89 | 1.02
12 | CC[C@H]1[C@@H](O)[C@@H]2[C@H](CC[C@]3(C)[C@@H]([C@H](C)CCC(=O)O)CC[C@@H]23)[C@@]2(C)CC[C@@H](O)C[C@@H]12 [Obeticholic Acid] | 0.8 | 0.73 | 0.73 | 1.06 | 0.72 | 1.07
13 | CC(C)c1ccc2oc3nc(N)c(C(=O)O)cc3c(=O)c2c1 [Amlexanox] | 0.94 | 0.76 | 0.76 | 0.7 | 0.76 | 0.7
14 | O=C(O)CCc1nc(-c2ccccc2)c(-c2ccccc2)o1 [Oxaprozin] | 1.1 | 1.04 | 1.23 | 0.92 | 0.88 | 0.67
15 | CN(C)CCC(c1ccc(Cl)cc1)c1ccccn1 (configuration not stated) [Chlorpheniramine Maleate] | 0.72 | 0.83 | 1.02 | 0.83 | 0.69 | 0.82
16 | C[C@@H](O)[C@H]1C(=O)N2C(C(=O)O)=C(S[C@@H]3CN[C@H](CNS(N)(=O)=O)C3)[C@H](C)[C@H]12 [Doripenem Hydrate] | 1.17 | 1.29 | 1.3 | 0.55 | 0.81 | 0.65
17 | CNCC[C@H](Oc1cccc2ccccc12)c1cccs1 [Duloxetine HCl] | 1.37 | 0.95 | 1.08 | 1.18 | 1.1 | 1.35
18 | COc1ccnc(C[S+]([O-])c2nc3cc(OC(F)F)ccc3[nH]2)c1OC (configuration not stated) [Pantoprazole sodium] | 1.18 | 1.39 | 1.14 | 1.16 | 1.33 | 1.26
19 | O=C(O)c1cccnc1Nc1cccc(C(F)(F)F)c1 [Niflumic acid] | 0.91 | 0.67 | 0.75 | 0.73 | 0.67 | 0.75
20 | CCCCNc1cc(C(=O)O)cc(S(N)(=O)=O)c1Oc1ccccc1 [Bumetanide] | 0.97 | 1.07 | 1.14 | 1.05 | 1.08 | 1.23
21 | COC(=O)N[C@H](C(=O)N[C@@H](Cc1ccccc1)[C@@H](O)CN(Cc1ccc(-c2ccccn2)cc1)NC(=O)[C@@H](NC(=O)OC)C(C)(C)C)C(C)(C)C [Atazanavir] | 0.82 | 0.84 | 0.92 | 0.48 | 0.99 | 1.01
22 | CCC(=O)NCC[C@@H]1CCc2ccc3c(c21)CCO3 [Ramelteon] | 0.69 | 0.53 | 0.66 | 0.63 | 0.78 | 0.77

One compound at a time (already shown). Order of values: growth (C. auris AR-384; 1 µM)	growth (C. auris AR-384; 10 µM)	growth (C. auris AR-386; 1 µM)	growth (C. auris AR-386; 10 µM)	growth (C. auris AR-387; 1 µM)	growth (C. auris AR-387; 10 µM)
CC1(C)[C@@H](O[C@H]2O[C@H](C(=O)O)[C@@H](O)[C@H](O)[C@H]2O[C@@H]2O[C@H](C(=O)O)[C@@H](O)[C@H](O)[C@H]2O)CC[C@]2(C)[C@H]3C(=O)C=C4[C@@H]5C[C@@](C)(C(=O)O)CC[C@]5(C)CC[C@@]4(C)[C@]3(C)CC[C@@H]12 [Ammonium Glycyrrhizinate] reads 0.94	0.86	0.99	0.83	1.02	0.93
C[N+](C)(CCOc1ccccc1)Cc1ccccc1.O=C([O-])c1cc2ccccc2cc1O [Bephenium Hydroxynaphthoate] reads 0.89	0.81	0.88	1	1.01	1.07
